In PubChem BioAssay AID1259415 (National Center for Advancing Translational Sciences (NCATS), 2018):
Where “and” joins values, the source holds several entries; their conditions need not be identical. Equal values may be shown once. Hit rate of the full screen: of about 410,000 compounds, about 18,000 (4.4%) were called active. Inconclusive results, whose numbers are uncertain, are shown with a selection of clear calls. Rule as the data show it: active = activity change below about -60%; inconclusive = no clear call, values can overlap the other calls; inactive = above about -39%.

Assay: qHTS Assay for inhibitors of the human cytomegalovirus (HCMV)
Details: HFF cells, HCMV-luciferase reporter, 72 h; at 57.5 µM; hits give low values
Outline: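 Two compound doses tested in HFFs infected with HCMV-luciferase, MOI 1 PFU/cell, 72 h at 37C. Lysate luminescence read with OneGlo; data normalized against buffer-only and 10uM Salinomycin inhibitor controls.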
% is scaled to controls: 0 for no effect and ±100 for the full control effect.

Structure (SMILES)	activity change, negative = inhibition
Cc1ccc(Nc2nc3ccccc3[nH]2)nc1	active: -76.6%
O=C1CCCCN1CCCC(=O)N1CCCC(Nc2ccc(F)cc2)C1 (configuration not stated)	inactive: 4.92%
Cc1ccc(N(CC(=O)Nc2cc(C)cc(C)c2)S(=O)(=O)c2c(C)noc2C)cc1	active: -85.4%
O=C(Nc1c(-c2ccc(F)cc2)nc2ccccn12)c1cccc(F)c1	active: -69.4%
O=C(/C=C/[C@H]1O[C@@H](n2ccc(=O)[nH]c2=O)[C@H](O)[C@@H]1O)NC(c1ccccc1)c1ccccc1	inactive: 11%
CCOc1cc(NC(=O)c2cccs2)c(OCC)cc1NC(=O)c1ccccn1	inactive: -30.9%
CC1=CC(C)(C)N(S(=O)(=O)c2ccc(C)cc2)c2ccccc21	inconclusive: -48.8%
CCN1CCN(CC(=O)Nc2cc(S(=O)(=O)N3CCCCC3)ccc2Cl)CC1	inactive: 7.33%
C=CCOC(=O)Cn1cnc2c(sc3nc(C)cc(C)c32)c1=O	inconclusive: -48.9%
Cn1c(SCC(=O)Nc2nccs2)nnc1-c1ccc(S(=O)(=O)N2CCCC2)cc1	inactive: -18.5%
Cc1ccc(NC(=O)CCn2c(=O)c3cccn3c3ccccc32)c(C)c1	inconclusive: -53.1%
CCCC(=O)C1=C(c2cccc(OC)c2)N(C(=O)CCC)n2c(C)nnc2S1	active: -95.2%
O=C(CC(Nc1ccccc1Cl)C(=O)O)c1ccccc1 (configuration not stated)	inconclusive: -59.5%
Cc1cccc(OCC(O)CN2CC3(C)CC2CC(C)(C)C3)c1 (configuration not stated)	inconclusive: -54.6%
O=C(O)CCSc1nc2ccccc2s1	active: -82.5%
O=C(CCC(=O)c1ccccc1)Nc1ccc(F)c(Cl)c1	inactive: -6.67%
O=S(=O)(NCCS(=O)(=O)N1CCN(c2ccccc2)CC1)c1ccc(Cl)cc1	inactive: -35.4%
Cc1ccc(Cl)cc1N(C)C(=O)Cn1ncc2c([nH]c3ccccc32)c1=O	active: -69.2%
CN(C)S(=O)(=O)c1cccc(C(=O)Nc2ccc(N3CCOCC3)cc2)c1	active: -79%
S=C(NCCCN1CCOCC1)N1CCN(c2cccc(Cl)c2)CC1	inconclusive: -50.6%
CC(=O)c1ccc(N2CCN(C(=O)c3cc4ccc5cccnc5c4[nH]3)CC2)cc1	inactive: 2.84%
COc1ccc(CCNC(=O)COc2cc(C)cc3oc(=O)cc(C)c23)cc1	inconclusive: -41.2%

Structure (SMILES)	activity change, negative = inhibition
Cc1ccc(C2CC(C(F)(F)F)n3nc(C(=O)NCc4c(C)nn(C)c4C)c(Cl)c3N2)cc1 (configuration not stated)	inconclusive: -41.4%
Cc1ccccc1-c1n[nH]c(=S)n1/N=C/c1ccc(-c2ccccc2Br)o1	active: -88.9%
O=c1[nH]c(=O)n(-c2ccc(F)cc2)c(O)c1/C=C1\C=Nc2ccccc21	inconclusive: -52.7%
Cc1c(O)ccc(/C=N/Nc2nc(-c3cccnc3)nc3ccccc23)c1O	active: -75.2%
O=C(O)c1cccc(-n2c(/C=C/c3ccc([N+](=O)[O-])cc3)nc3ccccc3c2=O)c1	active: -62.2%
O=C(c1ccc2c(c1)N(Cc1ccc(F)cc1)C(=O)c1ccccc1S2(=O)=O)N1CCN(c2ccccn2)CC1	active: -76.7% and active: -91.8%
CC(=O)c1ccc(N2CCN(C(=O)C3CCN(S(=O)(=O)c4cccs4)CC3)CC2)cc1	inconclusive: -59.6%
O=c1cc(-c2ccccc2)[nH]n1-c1ccc([N+](=O)[O-])cc1	active: -95%
N#CC(c1ccccc1)C(CC(=NO)c1ccccc1)c1ccccc1 (configuration not stated)	inconclusive: -56.6%
C[C@H]1COC(=O)[C@H](Cc2ccc(F)cc2)C/C=C\C[C@@H](CC(=O)N(CCO)Cc2ccccc2)C(=O)N1	inconclusive: -55.6%
COc1ccc(CNC(=S)N/N=C/c2ccncc2)cc1	inconclusive: -44.6%
CCCn1nc2cc(C(=O)NC3CCCc4ccccc43)ccc2c1OCC (configuration not stated)	inconclusive: -41.1%
O=c1c2ccccc2nc(CN2CCCCCC2)n1-c1ccc(F)cc1	inactive: 37.7%
Cc1ccc(C(O)(C(=O)NNC(=O)CN2CCN(C)CC2)c2ccc(C)cc2)cc1	inconclusive: -42.5%
COc1ccc(CNC(=O)C2CCN(S(C)(=O)=O)CC2)c(OC)c1	inconclusive: -41.2%
Cc1sc2nc(SCC(=O)N3CCOCC3)[nH]c(=O)c2c1C	inconclusive: -46%
CC(C)(C)c1ccc(C(=O)N2CCC(NC(=O)c3ccccc3)CC2)cc1	inconclusive: -42.2%
CCOc1ccc(-c2cc(C(=O)NCc3ccc(C(F)(F)F)cc3)[nH]n2)c(C)c1	inconclusive: -41.1%
COc1ccc(C2=[N+]([O-])C(C)(C)C(c3ccccc3)=N2)cc1	inconclusive: -44.4%
COc1ccc(-c2nsc(NC(=O)c3cccc(OC)c3)n2)cc1	inconclusive: -46.5%
COc1ccc(-c2nc(N)ncc2-c2ccc(Cl)cc2)c(O)c1	inconclusive: -49.3%
O=C(CSc1n[nH]c(-c2ccc(S(=O)(=O)N3CCCCC3)cc2)n1)Nc1nccs1	inactive: -36.5%

Structure (SMILES)	activity change, negative = inhibition
O=C(CSc1nc2c(cnn2-c2ccccc2)c(=O)[nH]1)N1CCCCC1	inconclusive: -40.5%
Cc1cc(=O)oc2cc(OCC(=O)Nc3ccccc3C(N)=O)c(Cl)cc12	inconclusive: -48.8%
O=C(Nc1ccccc1)Nc1nnc(CSCc2ccccc2Cl)s1	inconclusive: -42%
c1coc(Cn2c(SCc3nc4ccccc4[nH]3)nnc2-c2cccs2)c1	inconclusive: -45.8%
COc1ccccc1N1CCN(C(=O)CCCCCn2c(=O)[nH]c3ccsc3c2=O)CC1	inactive: -11.7%
COc1ccc(NC(=O)C(CC(=O)O)C(C)c2ccccc2)cc1 (configuration not stated)	inconclusive: -41.1%
Cc1ccc2nc(N(CCN(C)C)C(=O)/C=C/c3cccs3)sc2c1	inconclusive: -59.1%
O=C(Nc1cccc(Cl)c1)Nc1nnc(CSCCOc2ccc(Cl)cc2)s1	active: -72%
O=C(NC(=S)Nc1ccc(O)cc1)C1CCCC1	inactive: 11.6%
Cc1cc2ccccc2nc1-c1ccccc1F	inactive: -36.7%
CN(C)C(=O)N1CCC(C(=O)NCc2ccc(F)cc2Cl)CC1	inconclusive: -42.9%
NC(=S)N/N=C/c1ccc(-c2cc(Cl)cc(Cl)c2)o1	inconclusive: -50.3%
COC(=O)c1ccc2c(=O)n(CCCCCC(=O)O)c(=S)[nH]c2c1	active: -62.6%
COc1cccc(-c2nn(-c3ccccc3)cc2CN(C)C(C)c2ccon2)c1 (configuration not stated)	inactive: -30.8%
O=C(O)c1ccc(N(Cc2ccccc2)S(=O)(=O)c2ccccc2)cc1	inactive: 32.2%
Cc1ccc(S(=O)(=O)c2c(C)cc(C)nc2N2CCCCC2)cc1	inconclusive: -55.9%
COc1ccc(-c2csc(C(C)(O)c3ccc(F)c(F)c3)n2)cc1 (configuration not stated)	active: -63.5%
Cc1nn(CCc2nn[nH]n2)c2nc(-c3ccc(C4CCCCC4)cc3)cc(C(F)(F)F)c12	inconclusive: -54%
C=CCOC(=O)C(C#N)c1nc2ccccc2nc1N1CCN(c2ccccc2OCC)CC1 (configuration not stated)	inactive: -21.2%
O=C(NNC(=S)NC(=O)c1ccc(Br)cc1)c1ccc([N+](=O)[O-])cc1	inactive: 62.5%
Cc1cnc(C(=O)OCC(=O)Nc2ccc3c(c2)OCCO3)cn1	inconclusive: -42.4%
CC1=NN(C(N)=S)C(=O)C1N=Nc1ccc(C)c(Br)c1 (configuration not stated)	inactive: 87.4%

Some of the entries so far, as labelled records:
Cc1ccc(NC(=O)CCn2c(=O)c3cccn3c3ccccc32)c(C)c1
  activity change, negative = inhibition: inconclusive: -53.1%
CC(=O)c1ccc(N2CCN(C(=O)c3cc4ccc5cccnc5c4[nH]3)CC2)cc1
  activity change, negative = inhibition: inactive: 2.84%
Cc1c(O)ccc(/C=N/Nc2nc(-c3cccnc3)nc3ccccc23)c1O
  activity change, negative = inhibition: active: -75.2%
N#CC(c1ccccc1)C(CC(=NO)c1ccccc1)c1ccccc1 (configuration not stated)
  activity change, negative = inhibition: inconclusive: -56.6%

(further entries)

Structure (SMILES)	activity change, negative = inhibition
CC(=O)c1cccc(NC(=O)c2ccc3c(c2)c(C)c(C)n3Cc2ccc(Cl)cc2)c1	inconclusive: 0%
Clc1ccccc1Nc1nc(-c2cccnc2)cs1	inactive: -1.97%
CCN(Cc1ccccc1)C1CCN(Cc2ccc(SC)cc2)CC1	inconclusive: -53.1%
Cn1cc(CNC(=O)C2CCC(=O)N(Cc3ccc(Cl)cc3)C2)cn1 (configuration not stated)	inactive: -24%
COc1ccc(-n2nc(C(C)=O)c(=O)[nH]c2=O)cc1	inconclusive: -48.1%
O=C(CSc1nc2ccccc2s1)N1c2ccccc2Sc2ccc(C(F)(F)F)cc21	inactive: -2.54%
CSc1ccccc1-c1nnc(-c2ccccc2)o1	inactive: 87.8%
COc1ccc2ccc3c(c2c1)N=C[C@]1(O3)N(C)c2ccccc2C1(C)C	inconclusive: -48.3%
COc1ccc(CNC(=O)c2ccc3c(Cl)c4c(nc3c2)CCCC4)c(OC)c1	inconclusive: -42.4%
O=C(Nc1ccc2nn(-c3ccccc3)nc2c1)c1ccc2c(c1)OCCO2	inconclusive: -42%
Cc1cc(OCc2cn3cccnc3n2)ccc1Cl	inactive: 53.9%
COC(=O)c1ccc(CN(Cc2ccc(OC)c(OC)c2)S(=O)(=O)c2ccc(F)c(C(=O)Nc3cc(C)ccc3C)c2)cc1	inactive: -26.1%
CC1(C(=O)NS(=O)(=O)Cc2cccc(Cl)c2)CCN1C(=O)CCc1ccccc1 (configuration not stated)	inconclusive: -50.7%
CCC(=O)NC(=S)Nc1cccc(Cl)c1N1CCCC1	inconclusive: -48.6%
CN(/N=C/c1ccc([N+](=O)[O-])o1)c1ccccc1	active: -78%
Clc1cccc(OCCN2CCCC2)c1	inactive: 3.95%
NC(=O)[C@@H]1CCCN1Cc1nc(Cc2cccc(C(F)(F)F)c2)no1	inconclusive: -51.6%
COc1cccc(C(CNC(=O)c2ccc(Cl)c(S(=O)(=O)N3CCCC3)c2)N(C)C)c1 (configuration not stated)	inconclusive: -58.4%
CC(C)c1ccc(CN2C(=O)C(n3ccc4ccccc43)c3cccc(F)c32)cc1 (configuration not stated)	inactive: -19.8%
CCCCNc1ccc2c(c1)C1CC2CCN1C(=O)OCc1ccccc1 (configuration not stated)	inactive: 87.4%
COC(=O)Nc1ccc(S(=O)(=O)NCc2ccccn2)cc1	inconclusive: -43.3%
